According to patent US20180271863A1, “TARGETING P2 PURINERGIC RECEPTORS TO TREAT HEPATOCELLULAR CARCINOMA (HCC)” (Baylor College of Medicine, priority 2015, published 2018):
At least one structure is not confirmed: it was looked up by name or label, or the drawing left a doubt.

System: Huh7 cells
Assay: Western blotting of cyclin and CDK proteins in Huh7 cells
Assay type: cell-based, human
Conditions: SP600125 30 μM pre-treatment 30 min, ATPγS 24 hr
Procedure: Normal human primary hepatocytes isolated from healthy adults (no known history of HCC) in suspension or freshly-frozen prior to shipment (Cryoport Systems, CA) were purchased from Triangle Research Labs, NC. Fresh hepatocytes were plated on collagen-coated tissue culture plates or glass coverslips in Williams E complete media with additives (10% fetal bovine serum, 2 mM glutamine, […] insulin, 4 ng/ml glucagon, […] transferrin, 2.5 ng/ml sodium selenite, 10,000 U/ml penicillin, […] streptomycin, 50 g/ml gentamycin) for 3 h to ensure hepatocyte adherence to plates. Subsequently, hepatocytes were maintained in Williams E minimal media free from serum and growth factors for 24 h prior to treatment. […]
Total protein extracts were obtained by homogenizing cells in total lysis buffer (50 mM Tris-HCl, pH 7.5, 0.5 M NaCl, 2 mM EGTA, 2 mM EDTA, 1.0% Triton X-100, 0.25% Deoxycholate, 1 m/ml pepstatin, 1.0 m/ml leupeptin, 1.0 m/ml aprotinin, 1.0 mM phenylmethylsulfonyl fluoride, 1.0 mM Dithiothreitol, 2.0 mM activated Na3VO4, and 2.0 mM NaF) and centrifuging at 14,000 rpm for 10 min (4° C.). Equal amounts of total proteins as determined by BCA protein Assay (Pierce, Rockford, Ill.) were analyzed by Western blotting. […]

Oc1c2ccccc2c2c3c(cccc13)N=N2 [SP600125]
effect on ATPγS-mediated induction of cyclin D3, E and A proteins: completely attenuated
